This note sets out measurements from US20250222123A1 (ABTIS CO., LTD., priority 2022, published 2025).

Data set [1] in a line: general procedure: Fmoc solid-phase peptide synthesis; rink amide resin. Particulars: whole synthesis, analytical HPLC, scale 0.25 mmol, one disulfide bridge, sequence written open; run 1.
The nature of data set [2]: general procedure: Fmoc solid-phase peptide synthesis; rink amide resin (0.48 mmol/g, Peptides International, USA). Particulars: whole synthesis, analytical HPLC, scale of the general procedure 0.25 mmol, one disulfide bridge, sequence written open; run 1.

For the substance PEG8-DCAWHOrnGELVWCT-NH2, the figures for the “final HPLC purity” value in data set [1] and in data set [2] were 99.9% and 90% or higher, respectively.
